The supplement of paper PMC10849652
Some of the results follow.

The chains behind the UniProt entries cited, without tags or fusion partners. Where a name states a change or a piece, a line headed by the entry shows the natural chain unless it says otherwise.
UniProt Q9HCP0: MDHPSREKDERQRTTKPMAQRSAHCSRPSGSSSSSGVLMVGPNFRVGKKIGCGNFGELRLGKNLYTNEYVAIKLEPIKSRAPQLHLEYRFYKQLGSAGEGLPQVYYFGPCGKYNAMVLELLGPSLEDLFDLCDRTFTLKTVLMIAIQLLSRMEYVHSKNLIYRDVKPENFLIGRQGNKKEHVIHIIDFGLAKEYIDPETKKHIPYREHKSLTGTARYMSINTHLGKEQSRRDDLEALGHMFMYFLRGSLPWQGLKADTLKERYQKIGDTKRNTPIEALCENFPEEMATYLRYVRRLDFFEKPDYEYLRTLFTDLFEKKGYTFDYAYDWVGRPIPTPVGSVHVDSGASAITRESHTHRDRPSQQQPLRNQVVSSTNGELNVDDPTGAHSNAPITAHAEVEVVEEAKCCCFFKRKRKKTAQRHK
UniProt Q6UUV9: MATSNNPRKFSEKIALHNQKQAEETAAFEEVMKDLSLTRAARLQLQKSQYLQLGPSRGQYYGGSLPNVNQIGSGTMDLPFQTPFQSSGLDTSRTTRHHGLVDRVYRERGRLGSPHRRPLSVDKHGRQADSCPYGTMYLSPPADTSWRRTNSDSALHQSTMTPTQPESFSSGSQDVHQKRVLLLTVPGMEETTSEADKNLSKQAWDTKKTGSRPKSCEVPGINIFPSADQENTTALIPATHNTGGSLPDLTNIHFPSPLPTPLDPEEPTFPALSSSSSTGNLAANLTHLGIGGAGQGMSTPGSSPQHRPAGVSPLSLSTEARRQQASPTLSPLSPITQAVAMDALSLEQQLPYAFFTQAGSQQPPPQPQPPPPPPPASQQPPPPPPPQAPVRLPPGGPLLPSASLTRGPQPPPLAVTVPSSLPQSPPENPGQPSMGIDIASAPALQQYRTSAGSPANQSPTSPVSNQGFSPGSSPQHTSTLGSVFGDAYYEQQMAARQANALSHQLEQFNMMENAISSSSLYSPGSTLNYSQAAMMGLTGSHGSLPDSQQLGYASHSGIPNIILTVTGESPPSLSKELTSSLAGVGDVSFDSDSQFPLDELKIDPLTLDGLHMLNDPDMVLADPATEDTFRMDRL
UniProt P68400, whole entry, looked up: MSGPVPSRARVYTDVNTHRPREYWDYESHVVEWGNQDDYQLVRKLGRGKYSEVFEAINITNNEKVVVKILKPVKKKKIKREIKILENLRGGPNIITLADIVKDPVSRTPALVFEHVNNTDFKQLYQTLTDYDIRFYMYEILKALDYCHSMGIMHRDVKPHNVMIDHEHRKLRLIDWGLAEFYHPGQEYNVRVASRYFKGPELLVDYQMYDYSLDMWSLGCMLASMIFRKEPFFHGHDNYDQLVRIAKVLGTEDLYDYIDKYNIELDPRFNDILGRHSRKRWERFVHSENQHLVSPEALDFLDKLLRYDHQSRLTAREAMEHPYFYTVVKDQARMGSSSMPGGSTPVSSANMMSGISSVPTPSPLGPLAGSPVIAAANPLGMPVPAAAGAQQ
UniProt Q9UBL6: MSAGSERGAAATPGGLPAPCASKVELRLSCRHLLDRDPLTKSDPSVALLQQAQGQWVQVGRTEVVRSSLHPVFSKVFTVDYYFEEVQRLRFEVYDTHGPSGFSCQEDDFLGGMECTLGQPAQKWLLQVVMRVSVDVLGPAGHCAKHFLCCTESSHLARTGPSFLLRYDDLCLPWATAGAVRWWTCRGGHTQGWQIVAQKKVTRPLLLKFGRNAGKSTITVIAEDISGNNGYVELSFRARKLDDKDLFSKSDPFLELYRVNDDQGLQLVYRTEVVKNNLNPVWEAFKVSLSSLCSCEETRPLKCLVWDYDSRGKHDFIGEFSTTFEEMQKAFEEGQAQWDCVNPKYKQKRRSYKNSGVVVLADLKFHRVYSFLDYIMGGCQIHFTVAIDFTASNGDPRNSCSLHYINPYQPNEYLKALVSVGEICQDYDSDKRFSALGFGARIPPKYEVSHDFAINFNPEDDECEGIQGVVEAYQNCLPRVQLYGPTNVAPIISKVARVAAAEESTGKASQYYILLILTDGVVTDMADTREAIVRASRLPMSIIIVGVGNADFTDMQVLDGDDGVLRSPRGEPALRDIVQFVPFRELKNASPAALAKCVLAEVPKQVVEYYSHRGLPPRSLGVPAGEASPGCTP
UniProt Q16630, whole entry, looked up: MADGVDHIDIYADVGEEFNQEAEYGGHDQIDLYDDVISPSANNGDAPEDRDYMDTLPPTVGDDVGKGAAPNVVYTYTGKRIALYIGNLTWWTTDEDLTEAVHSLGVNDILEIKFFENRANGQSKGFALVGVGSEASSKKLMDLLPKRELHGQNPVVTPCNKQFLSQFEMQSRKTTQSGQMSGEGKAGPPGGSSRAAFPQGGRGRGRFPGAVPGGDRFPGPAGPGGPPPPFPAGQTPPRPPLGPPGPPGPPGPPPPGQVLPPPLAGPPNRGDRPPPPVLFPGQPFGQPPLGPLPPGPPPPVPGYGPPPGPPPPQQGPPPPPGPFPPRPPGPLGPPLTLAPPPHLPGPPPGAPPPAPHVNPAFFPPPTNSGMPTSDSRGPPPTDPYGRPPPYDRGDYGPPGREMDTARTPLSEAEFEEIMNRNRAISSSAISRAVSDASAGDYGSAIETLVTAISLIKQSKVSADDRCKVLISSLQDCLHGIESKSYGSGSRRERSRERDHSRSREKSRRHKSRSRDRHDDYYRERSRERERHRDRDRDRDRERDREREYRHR
UniProt Q8N752: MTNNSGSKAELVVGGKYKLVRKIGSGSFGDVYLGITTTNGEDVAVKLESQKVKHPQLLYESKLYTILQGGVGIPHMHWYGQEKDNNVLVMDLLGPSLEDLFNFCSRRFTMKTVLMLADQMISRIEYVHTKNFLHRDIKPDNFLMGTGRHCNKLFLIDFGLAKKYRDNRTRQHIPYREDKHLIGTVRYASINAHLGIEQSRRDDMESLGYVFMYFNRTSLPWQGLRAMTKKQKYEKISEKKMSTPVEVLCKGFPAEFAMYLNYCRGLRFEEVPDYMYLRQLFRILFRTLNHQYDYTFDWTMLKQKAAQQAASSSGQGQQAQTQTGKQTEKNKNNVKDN
UniProt P46108: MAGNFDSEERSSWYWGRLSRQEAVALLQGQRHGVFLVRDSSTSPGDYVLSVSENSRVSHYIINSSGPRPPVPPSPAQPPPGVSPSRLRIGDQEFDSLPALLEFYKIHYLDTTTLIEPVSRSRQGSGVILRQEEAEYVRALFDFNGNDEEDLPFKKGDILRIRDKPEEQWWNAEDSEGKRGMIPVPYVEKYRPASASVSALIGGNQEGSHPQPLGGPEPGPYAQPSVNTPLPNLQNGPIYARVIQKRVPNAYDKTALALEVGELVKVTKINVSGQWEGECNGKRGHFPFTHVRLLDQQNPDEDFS
UniProt Q9UJA2: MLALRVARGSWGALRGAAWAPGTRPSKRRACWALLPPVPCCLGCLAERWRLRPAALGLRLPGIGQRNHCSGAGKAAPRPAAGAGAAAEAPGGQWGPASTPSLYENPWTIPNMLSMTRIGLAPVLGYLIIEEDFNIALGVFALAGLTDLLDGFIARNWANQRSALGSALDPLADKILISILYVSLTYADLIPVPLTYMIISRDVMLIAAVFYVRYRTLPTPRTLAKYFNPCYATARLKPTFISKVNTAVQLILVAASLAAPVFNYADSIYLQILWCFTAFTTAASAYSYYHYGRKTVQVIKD

Legend:
Assay in all cases: log2 fold change, soluble protein after heating vs DMSO (PISA); higher = thermal stabilisation; K562 cells, 10 uM, 30 min; active = over 0.2 and 3.5 SD of the protein, either way, in both replicates (recomputed)
saracatinib = compound: CN1CCN(CCOc2cc(OC3CCOCC3)c3c(Nc4c(Cl)ccc5c4OCO5)ncnc3c2)CC1 [saracatinib]
Procedure, shortened: (§1)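 K562 cells (2×10^6 cells/mL) were treated with 10 μM compound for 30 min, and aliquots were heated for 3 min over 48°C-58°C. Pooled aliquots were extracted in PBS with 0.5% NP-40 at 4°C, and the supernatant after 21,000xg for 90 min was measured by TMTpro 16plex LC-MS/MS with channel sums equalised. Reported thermal stability, relative to control samples and from duplicates, is a log2 fold change.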

sotrastaurin = compound: CN1CCN(c2nc(C3=C(c4c[nH]c5ccccc45)C(=O)NC3=O)c3ccccc3n2)CC1 [sotrastaurin]
Procedure, shortened: as §1

[1] = compound: CNC(=O)C1=CC=CC=C1NC2=NC(=NC=C2Cl)NC3=C(C=C(C=C3)N4CCOCC4)OC
Procedure, shortened: as §1

rucaparib = compound: CNCc1ccc(-c2[nH]c3cc(F)cc4c3c2CCNC4=O)cc1 [rucaparib]
Procedure, shortened: as §1

[2] = compound: CNc1nc(-c2ccc3c(N)n[nH]c3c2)cc(N2C[C@@H](C(=O)NC3CCCCC3)CC[C@H]2C)n1
Procedure, shortened: as §1

encorafenib = compound: COC(=O)N[C@@H](C)CNc1nccc(-c2cn(C(C)C)nc2-c2cc(Cl)cc(NS(C)(=O)=O)c2F)n1 [encorafenib]
Procedure, shortened: as §1

filanesib = compound: CON(C)C(=O)N1N=C(c2cc(F)ccc2F)S[C@@]1(CCCN)c1ccccc1 [filanesib]
Procedure, shortened: as §1

alisertib = compound: COc1cc(Nc2ncc3c(n2)-c2ccc(Cl)cc2C(c2c(F)cccc2OC)=NC3)ccc1C(=O)O [alisertib]
Procedure, shortened: as §1

gefitinib = compound: COc1cc2ncnc(Nc3ccc(F)c(Cl)c3)c2cc1OCCCN1CCOCC1 [gefitinib]
Procedure, shortened: as §1

[3] = compound: COc1cccc2cc(-c3nc([C@H]4CC[C@H](C(=O)O)CC4)n4ncnc(N)c34)[nH]c12
Procedure, shortened: as §1

Tubastatin A = compound: CN1CCc2c(c3ccccc3n2Cc2ccc(C(=O)NO)cc2)C1 [Tubastatin A]
Procedure, shortened: as §1

defactinib = compound: CNC(=O)c1ccc(Nc2ncc(C(F)(F)F)c(NCc3nccnc3N(C)S(C)(=O)=O)n2)cc1 [defactinib]
Procedure, shortened: as §1

[4] = compound: COC(=O)[C@H](CCSC)NC(=O)C1=C(C=C(C=C1)NC[C@H](CS)N)C2=CC=CC=C2
Procedure, shortened: as §1

[5] = compound: COC1=CC=C(C=C1)CN2C=CC3=C2C=C(C=C3)C(=O)NO
Procedure, shortened: as §1

idasanutlin = compound: COc1cc(C(=O)O)ccc1NC(=O)[C@@H]1N[C@@H](CC(C)(C)C)[C@](C#N)(c2ccc(Cl)cc2F)[C@H]1c1cccc(Cl)c1F [idasanutlin]
Procedure, shortened: as §1

[6] = compound: COc1cc2nc(-c3cc(F)ccc3O)nc(N[C@@H]3CNC[C@H]3C(C)(C)O)c2cc1OC
Procedure, shortened: as §1

lapatinib = compound: CS(=O)(=O)CCNCc1ccc(-c2ccc3ncnc(Nc4ccc(OCc5cccc(F)c5)c(Cl)c4)c3c2)o1 [lapatinib]
Procedure, shortened: as §1

pictilisib = compound: CS(=O)(=O)N1CCN(Cc2cc3nc(-c4cccc5[nH]ncc45)nc(N4CCOCC4)c3s2)CC1 [pictilisib]
Procedure, shortened: as §1

zotarolimus = compound: CO[C@H]1C[C@@H]2CC[C@@H](C)[C@@](O)(O2)C(=O)C(=O)N2CCCC[C@H]2C(=O)O[C@H]([C@H](C)C[C@@H]2CC[C@H](n3cnnn3)[C@H](OC)C2)CC(=O)[C@H](C)/C=C(\C)[C@@H](O)[C@@H](OC)C(=O)[C@H](C)C[C@H](C)/C=C/C=C/C=C/1C [zotarolimus]
Procedure, shortened: as §1

alvocidib = compound: CN1CC[C@H](c2c(O)cc(O)c3c(=O)cc(-c4ccccc4Cl)oc23)[C@H](O)C1 [alvocidib]
Procedure, shortened: as §1

Row | Target | log2 fold change (saracatinib) | log2 fold change (sotrastaurin) | log2 fold change [1] | log2 fold change (rucaparib) | log2 fold change [2] | log2 fold change (encorafenib) | log2 fold change (filanesib) | log2 fold change (alisertib) | log2 fold change (gefitinib) | log2 fold change [3] | log2 fold change (Tubastatin A) | log2 fold change (defactinib) | log2 fold change [4] | log2 fold change [5] | log2 fold change (idasanutlin) | log2 fold change [6] | log2 fold change (lapatinib) | log2 fold change (pictilisib) | log2 fold change (zotarolimus) | log2 fold change (alvocidib)
1 | CSNK1G1 (UniProt Q9HCP0) | inactive: 0.026 | inactive: -0.103 | inactive: 0.15 | inactive: 0.144 | inactive: -0.086 | inactive: 0.113 | inactive: -0.125 | inactive: -0.15 | inactive: 0.213 | inactive: -0.11 | – | – | – | – | – | – | – | – | – | –
2 | CRTC1 isoform 2 (UniProt Q6UUV9) | inactive: -0.026 | inactive: 0.011 | inactive: -0.101 | – | inactive: -0.062 | – | inactive: -0.002 | – | – | – | inactive: -0.009 | inactive: -0.021 | inactive: 0.009 | active: -0.39 | inactive: -0.021 | inactive: 0.138 | inactive: 0.028 | inactive: -0.013 | – | –
3 | CSNK2A1 (UniProt P68400) | inactive: 0.016 | inactive: 0.059 | active: 0.263 | inactive: -0.079 | inactive: -0.045 | inactive: -0.038 | inactive: 0.03 | inactive: -0.073 | inactive: -0.023 | inactive: 0.066 | inactive: -0.019 | inactive: -0.113 | inactive: -0.034 | inactive: -0.025 | inactive: -0.009 | inactive: -0.167 | inactive: 0.032 | inactive: 0.102 | inactive: -0.015 | –
4 | CPNE7 (UniProt Q9UBL6) | inactive: 0.056 | – | inactive: -0.021 | inactive: 0.057 | inactive: 0.061 | inactive: 0.006 | – | inactive: -0.207 | inactive: 0.068 | inactive: 0.047 | inactive: -0.094 | inactive: -0.194 | inactive: -0.042 | inactive: 0.001 | inactive: -0.091 | inactive: 0.085 | inactive: -0.061 | – | inactive: 0.018 | inactive: -0.165
5 | CPSF6 isoform 2 (UniProt Q16630) | inactive: -0.014 | inactive: 0.031 | inactive: -0.217 | inactive: 0.016 | inactive: 0.008 | inactive: -0.043 | inactive: 0.036 | inactive: -0.046 | inactive: 0.023 | inactive: 0.025 | inactive: 0.015 | inactive: -0.009 | inactive: 0.007 | inactive: -0.03 | inactive: 0.034 | inactive: 0.063 | inactive: -0.016 | inactive: 0.055 | inactive: 0.016 | –
6 | CSNK1A1L (UniProt Q8N752) | inactive: 0.026 | inactive: -0.007 | inactive: 0.005 | inactive: 0.06 | inactive: -0.05 | inactive: 0.038 | inactive: 0.129 | inactive: 0.038 | inactive: -0.069 | inactive: -0.074 | inactive: 0.038 | inactive: 0.094 | inactive: -0.018 | inactive: -0.089 | inactive: 0.092 | inactive: -0.096 | inactive: 0.013 | inactive: -0.111 | inactive: -0.057 | –
7 | CRYM-AS1 (UniProt A6NIL9) | inactive: -0.092 | inactive: -0.041 | inactive: -0.347 | inactive: -0.356 | inactive: 0.103 | inactive: 0.024 | inactive: 0.047 | inactive: 0.037 | inactive: -0.16 | inactive: -0.041 | inactive: 0.119 | inactive: -0.065 | inactive: -0.078 | inactive: 0.159 | inactive: -0.364 | – | – | inactive: 0.109 | inactive: 0.146 | –
8 | CRK (UniProt P46108) | active: -0.768 | inactive: 0 | inactive: -0.003 | inactive: -0.025 | inactive: -0.006 | inactive: 0.021 | inactive: 0.008 | inactive: -0.107 | inactive: -0.006 | inactive: 0.025 | inactive: 0.092 | inactive: -0.056 | inactive: -0.024 | inactive: 0.072 | inactive: 0.061 | inactive: 0.011 | inactive: 0.012 | inactive: 0.043 | inactive: 0.144 | –
9 | CRLS1 (UniProt Q9UJA2) | inactive: 0.144 | inactive: -0.282 | inactive: 0.043 | inactive: -0.088 | inactive: -0.052 | inactive: 0.004 | inactive: -0.125 | inactive: -0.071 | inactive: 0.021 | inactive: 0.075 | inactive: -0.079 | inactive: -0.088 | inactive: 0.067 | inactive: 0.044 | – | inactive: -0.229 | inactive: 0.046 | inactive: -0.029 | inactive: 0.005 | –
